In paper PMC4169592:
No constants are given. Whether binding was seen depends on the method and setting. A result given as binding can be weak or reduced; the word gives no strength. For some assays here: Binding seen in cells or lysates may run through a third protein. For some assays here: Where a sequence is shown, tags or fusion partners need not be part of it. Each block holds one molecule with its values, some of them ahead of it.

Tests used:
[1] = target: T1, flag-tagged Vinexin α (mouse) (UniProt Q9R1Z8); assay: co-IP; 293T cells co-transfected with two or three plasmids; lysed in IP buffer (50 mM Tris pH 7.4, 150 mM NaCl, 0.5 mM EDTA, 0.5% NP40, 20% glycerol, 1 mM DTT, 100 µg/ml RNaseA), 4°C; protein G beads with myc, flag or GFP antibody, western blot; some cells treated with arsenite ± PD98059, SB2035800, SP600125 or with wt or DN-JNK1
T1 sequence: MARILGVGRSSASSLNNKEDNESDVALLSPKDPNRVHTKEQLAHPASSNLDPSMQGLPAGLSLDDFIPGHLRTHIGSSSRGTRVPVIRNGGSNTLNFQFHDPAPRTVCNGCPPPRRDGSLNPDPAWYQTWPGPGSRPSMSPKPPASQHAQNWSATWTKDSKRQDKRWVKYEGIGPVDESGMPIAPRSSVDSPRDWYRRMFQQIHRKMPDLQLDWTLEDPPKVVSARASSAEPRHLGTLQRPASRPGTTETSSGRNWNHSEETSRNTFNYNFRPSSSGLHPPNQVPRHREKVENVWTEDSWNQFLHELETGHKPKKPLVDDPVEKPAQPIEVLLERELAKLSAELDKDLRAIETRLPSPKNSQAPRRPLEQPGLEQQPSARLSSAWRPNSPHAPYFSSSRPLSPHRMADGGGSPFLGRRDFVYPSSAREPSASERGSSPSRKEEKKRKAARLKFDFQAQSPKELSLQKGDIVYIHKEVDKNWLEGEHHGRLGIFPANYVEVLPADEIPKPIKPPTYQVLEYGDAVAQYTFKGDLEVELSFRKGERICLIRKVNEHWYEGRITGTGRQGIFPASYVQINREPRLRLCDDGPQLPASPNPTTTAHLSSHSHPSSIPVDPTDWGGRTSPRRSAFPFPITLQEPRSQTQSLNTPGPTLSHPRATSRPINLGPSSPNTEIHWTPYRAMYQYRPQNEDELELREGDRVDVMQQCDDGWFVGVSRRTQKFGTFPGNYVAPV

myc-tagged CPEB3 = target: T2, myc-tagged CPEB3 (UniProt Q7TN99); assay: as above
T2 sequence: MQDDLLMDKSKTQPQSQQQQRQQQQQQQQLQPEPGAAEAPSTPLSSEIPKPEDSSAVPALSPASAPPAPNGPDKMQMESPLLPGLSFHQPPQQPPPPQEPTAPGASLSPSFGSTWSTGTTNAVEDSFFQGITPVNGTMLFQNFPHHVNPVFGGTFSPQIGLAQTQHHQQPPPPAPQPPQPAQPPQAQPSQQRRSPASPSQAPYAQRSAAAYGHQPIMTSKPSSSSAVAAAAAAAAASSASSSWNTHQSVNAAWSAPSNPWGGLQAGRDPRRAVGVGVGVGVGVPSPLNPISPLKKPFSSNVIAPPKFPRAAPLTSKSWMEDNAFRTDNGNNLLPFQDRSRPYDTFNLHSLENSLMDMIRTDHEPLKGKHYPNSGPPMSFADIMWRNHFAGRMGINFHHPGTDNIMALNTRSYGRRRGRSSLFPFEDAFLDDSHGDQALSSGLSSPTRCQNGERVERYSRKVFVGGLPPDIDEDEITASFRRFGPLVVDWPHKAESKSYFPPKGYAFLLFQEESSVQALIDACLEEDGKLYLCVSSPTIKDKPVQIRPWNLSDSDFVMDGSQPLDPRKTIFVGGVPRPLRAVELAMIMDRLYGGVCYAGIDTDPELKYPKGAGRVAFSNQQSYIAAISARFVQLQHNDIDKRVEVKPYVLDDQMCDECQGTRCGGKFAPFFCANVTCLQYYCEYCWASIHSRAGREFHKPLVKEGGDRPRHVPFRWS

myc-tagged CPEB2 = target: T3, myc-tagged CPEB2 (UniProt Q812E0); assay: as above
T3 sequence: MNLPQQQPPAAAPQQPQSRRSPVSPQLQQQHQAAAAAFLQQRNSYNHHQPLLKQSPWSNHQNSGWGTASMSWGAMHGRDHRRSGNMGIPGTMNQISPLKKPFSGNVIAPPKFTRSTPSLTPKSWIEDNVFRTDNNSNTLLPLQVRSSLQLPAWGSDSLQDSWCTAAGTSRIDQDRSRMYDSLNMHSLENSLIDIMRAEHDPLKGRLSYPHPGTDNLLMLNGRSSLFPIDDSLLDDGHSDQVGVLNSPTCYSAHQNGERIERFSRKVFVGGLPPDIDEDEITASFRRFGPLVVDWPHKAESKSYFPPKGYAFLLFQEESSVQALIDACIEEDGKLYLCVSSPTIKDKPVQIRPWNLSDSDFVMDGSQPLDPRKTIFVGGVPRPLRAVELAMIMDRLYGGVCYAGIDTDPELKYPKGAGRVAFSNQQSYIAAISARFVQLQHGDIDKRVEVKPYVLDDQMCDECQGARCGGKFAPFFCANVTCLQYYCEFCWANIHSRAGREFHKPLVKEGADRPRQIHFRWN

EGFP-Vinexin β (mouse) = assay: co-IP; 293T cells overexpressing EGFP-Vinexin β or EGFP, ± arsenite, mildly crosslinked with 0.8% formaldehyde, lysed in IP buffer, sonicated; IP with GFP antibody, blot for endogenous CPEB4
[2] = target: N-terminus of CPEB4 (a.a. 1–458), yeast two-hybrid bait (rat); assay: two-hybrid; yeast two-hybrid screen: N-terminal 458 a.a. of rat CPEB4 (pGBKT7) as bait against a mouse brain cDNA library

Molecule: myc-tagged CPEB4 (rat)
binding [1]: binds

B1: endogenous CPEB4 of 293T cells (protein, UniProt Q17RY0 1-729)
chain: MGDYGFGVLVQSNTGNKSAFPVRFHPHLQPPHHHQNATPSPAAFINNNTAANGSSAGSAWLFPAPATHNIQDEILGSEKAKSQQQEQQDPLEKQQLSPSPGQEAGILPETEKAKSEENQGDNSSENGNGKEKIRIESPVLTGFDYQEATGLGTSTQPLTSSASSLTGFSNWSAAIAPSSSTIINEDASFFHQGGVPAASANNGALLFQNFPHHVSPGFGGSFSPQIGPLSQHHPHHPHFQHHHSQHQQQRRSPASPHPPPFTHRNAAFNQLPHLANNLNKPPSPWSSYQSPSPTPSSSWSPGGGGYGGWGGSQGRDHRRGLNGGITPLNSISPLKKNFASNHIQLQKYARPSSAFAPKSWMEDSLNRADNIFPFPDRPRTFDMHSLESSLIDIMRAENDTIKGRLNYSYPGSDSSLLINARTYGRRRGQSSLFPMEDGFLDDGRGDQPLHSGLGSPHCFSHQNGERVERYSRKVFVGGLPPDIDEDEITASFRRFGPLIVDWPHKAESKSYFPPKGYAFLLFQDESSVQALIDACIEEDGKLYLCVSSPTIKDKPVQIRPWNLSDSDFVMDGSQPLDPRKTIFVGGVPRPLRAVELAMIMDRLYGGVCYAGIDTDPELKYPKGAGRVAFSNQQSYIAAISARFVQLQHGEIDKRVEVKPYVLDDQLCDECQGARCGGKFAPFFCANVTCLQYYCEYCWAAIHSRAGREFHKPLVKEGGDRPRHISFRWN
binding (EGFP-Vinexin β (mouse)): binds

The next lines start with the values.

binding (myc-tagged CPEB3): binds
binding (myc-tagged CPEB2): binds
Molecule: flag-tagged Vinexin β (mouse)

binding [2]: binds
B2: Vinexin α a.a. 483–633 (yeast two-hybrid clone) (domain or fragment, UniProt Q9R1Z8 483-633)
chain: EGEHHGRLGIFPANYVEVLPADEIPKPIKPPTYQVLEYGDAVAQYTFKGDLEVELSFRKGERICLIRKVNEHWYEGRITGTGRQGIFPASYVQINREPRLRLCDDGPQLPASPNPTTTAHLSSHSHPSSIPVDPTDWGGRTSPRRSAFPFP
